Data published in the supplement of paper PMC12067093, “Discovery and optimisation of a covalent ligand for TRIM25 and its application to targeted protein ubiquitination” (Chemical Science, 2025).
The other results are listed elsewhere or left out.

Chains of the proteins cited; added tags and fusions are not shown. Lines headed by an entry give the natural chain unless they say otherwise; changes in a name come on top.
UniProt Q9NXA8: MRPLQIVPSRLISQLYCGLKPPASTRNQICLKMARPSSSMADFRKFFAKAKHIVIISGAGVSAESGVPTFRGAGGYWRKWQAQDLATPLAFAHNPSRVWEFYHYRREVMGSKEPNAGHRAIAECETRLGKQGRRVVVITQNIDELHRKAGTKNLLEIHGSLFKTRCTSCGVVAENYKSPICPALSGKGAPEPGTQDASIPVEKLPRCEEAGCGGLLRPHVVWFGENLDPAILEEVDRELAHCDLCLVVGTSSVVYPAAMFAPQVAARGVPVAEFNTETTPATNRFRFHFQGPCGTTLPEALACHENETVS
UniProt Q96BD8: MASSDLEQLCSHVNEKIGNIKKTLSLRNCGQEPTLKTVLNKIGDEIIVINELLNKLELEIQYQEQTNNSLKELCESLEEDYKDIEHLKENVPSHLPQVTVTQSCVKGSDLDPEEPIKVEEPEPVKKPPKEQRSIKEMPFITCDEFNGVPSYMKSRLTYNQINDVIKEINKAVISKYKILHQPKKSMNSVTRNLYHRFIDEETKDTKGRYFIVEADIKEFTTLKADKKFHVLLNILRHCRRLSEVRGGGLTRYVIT
UniProt Q92599: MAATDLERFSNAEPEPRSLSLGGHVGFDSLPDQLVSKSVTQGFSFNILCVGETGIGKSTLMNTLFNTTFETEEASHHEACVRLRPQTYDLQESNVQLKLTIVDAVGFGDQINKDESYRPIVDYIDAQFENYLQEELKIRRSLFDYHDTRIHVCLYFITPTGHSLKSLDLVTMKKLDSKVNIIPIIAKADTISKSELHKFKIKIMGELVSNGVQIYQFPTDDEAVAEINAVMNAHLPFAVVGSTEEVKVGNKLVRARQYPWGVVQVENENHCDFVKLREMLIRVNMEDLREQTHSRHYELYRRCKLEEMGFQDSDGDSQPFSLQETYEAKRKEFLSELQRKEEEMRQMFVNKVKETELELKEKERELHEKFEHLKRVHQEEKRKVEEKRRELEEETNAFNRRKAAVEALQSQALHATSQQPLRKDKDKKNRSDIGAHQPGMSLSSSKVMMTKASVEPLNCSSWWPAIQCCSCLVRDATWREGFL
UniProt Q99961: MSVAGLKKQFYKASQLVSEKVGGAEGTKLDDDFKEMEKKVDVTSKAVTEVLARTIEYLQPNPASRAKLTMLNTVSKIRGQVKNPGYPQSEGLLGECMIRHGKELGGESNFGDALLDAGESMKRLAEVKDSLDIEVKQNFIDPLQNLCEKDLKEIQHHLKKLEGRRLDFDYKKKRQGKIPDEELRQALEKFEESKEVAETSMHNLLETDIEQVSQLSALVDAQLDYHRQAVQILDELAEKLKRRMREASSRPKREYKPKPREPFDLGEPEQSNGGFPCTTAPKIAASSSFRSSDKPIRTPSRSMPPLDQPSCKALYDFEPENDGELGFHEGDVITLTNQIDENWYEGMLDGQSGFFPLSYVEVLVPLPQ
UniProt Q15477, whole entry, looked up: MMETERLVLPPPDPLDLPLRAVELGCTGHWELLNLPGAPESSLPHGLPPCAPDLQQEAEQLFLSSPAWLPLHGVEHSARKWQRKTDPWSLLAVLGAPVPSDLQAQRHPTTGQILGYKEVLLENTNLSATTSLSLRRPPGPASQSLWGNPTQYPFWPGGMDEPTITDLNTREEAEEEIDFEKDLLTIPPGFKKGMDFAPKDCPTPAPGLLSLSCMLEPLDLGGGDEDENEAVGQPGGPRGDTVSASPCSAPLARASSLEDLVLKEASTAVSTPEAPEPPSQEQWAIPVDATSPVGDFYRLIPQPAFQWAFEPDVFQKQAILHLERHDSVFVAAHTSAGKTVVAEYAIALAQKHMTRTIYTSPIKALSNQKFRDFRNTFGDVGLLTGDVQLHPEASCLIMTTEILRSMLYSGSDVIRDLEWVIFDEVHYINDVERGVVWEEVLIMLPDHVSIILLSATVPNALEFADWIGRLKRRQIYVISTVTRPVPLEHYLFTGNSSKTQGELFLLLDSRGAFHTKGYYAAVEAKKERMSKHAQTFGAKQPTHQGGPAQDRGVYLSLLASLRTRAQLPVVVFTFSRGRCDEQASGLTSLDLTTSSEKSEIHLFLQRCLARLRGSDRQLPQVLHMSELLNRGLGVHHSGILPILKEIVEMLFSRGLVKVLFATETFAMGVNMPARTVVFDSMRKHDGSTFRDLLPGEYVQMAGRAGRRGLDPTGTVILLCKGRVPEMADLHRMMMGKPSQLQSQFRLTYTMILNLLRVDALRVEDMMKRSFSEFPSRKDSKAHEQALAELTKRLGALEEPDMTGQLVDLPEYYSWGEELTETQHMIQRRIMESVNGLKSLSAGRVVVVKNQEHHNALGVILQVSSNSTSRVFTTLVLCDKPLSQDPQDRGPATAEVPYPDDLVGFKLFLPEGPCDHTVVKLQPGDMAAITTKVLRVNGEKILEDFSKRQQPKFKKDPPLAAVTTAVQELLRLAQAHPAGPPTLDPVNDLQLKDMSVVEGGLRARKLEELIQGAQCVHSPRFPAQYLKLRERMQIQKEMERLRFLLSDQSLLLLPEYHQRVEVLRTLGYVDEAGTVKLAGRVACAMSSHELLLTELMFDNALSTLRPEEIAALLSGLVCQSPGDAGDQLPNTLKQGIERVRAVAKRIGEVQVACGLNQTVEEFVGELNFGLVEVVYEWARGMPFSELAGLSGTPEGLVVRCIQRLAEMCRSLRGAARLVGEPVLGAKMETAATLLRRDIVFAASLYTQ
UniProt O75563, whole entry, looked up: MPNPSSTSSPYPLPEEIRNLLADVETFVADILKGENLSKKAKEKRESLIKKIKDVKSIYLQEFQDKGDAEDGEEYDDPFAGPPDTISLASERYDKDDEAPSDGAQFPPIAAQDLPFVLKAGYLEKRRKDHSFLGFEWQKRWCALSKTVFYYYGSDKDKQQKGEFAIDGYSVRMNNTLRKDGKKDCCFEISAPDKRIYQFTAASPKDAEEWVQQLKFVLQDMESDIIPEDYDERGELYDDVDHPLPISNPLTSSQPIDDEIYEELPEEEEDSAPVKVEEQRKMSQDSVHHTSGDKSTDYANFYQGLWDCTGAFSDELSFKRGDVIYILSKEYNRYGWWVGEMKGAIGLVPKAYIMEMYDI
UniProt Q9HC21: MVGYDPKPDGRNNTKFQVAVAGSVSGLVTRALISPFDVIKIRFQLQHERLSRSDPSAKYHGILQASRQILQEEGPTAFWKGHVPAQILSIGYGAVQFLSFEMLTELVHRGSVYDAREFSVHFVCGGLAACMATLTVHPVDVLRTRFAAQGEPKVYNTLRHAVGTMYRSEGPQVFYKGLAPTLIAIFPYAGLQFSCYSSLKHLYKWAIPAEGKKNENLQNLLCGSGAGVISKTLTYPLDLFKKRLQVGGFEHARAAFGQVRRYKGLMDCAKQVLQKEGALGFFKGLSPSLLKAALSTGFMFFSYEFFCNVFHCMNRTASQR
UniProt Q9UBX3: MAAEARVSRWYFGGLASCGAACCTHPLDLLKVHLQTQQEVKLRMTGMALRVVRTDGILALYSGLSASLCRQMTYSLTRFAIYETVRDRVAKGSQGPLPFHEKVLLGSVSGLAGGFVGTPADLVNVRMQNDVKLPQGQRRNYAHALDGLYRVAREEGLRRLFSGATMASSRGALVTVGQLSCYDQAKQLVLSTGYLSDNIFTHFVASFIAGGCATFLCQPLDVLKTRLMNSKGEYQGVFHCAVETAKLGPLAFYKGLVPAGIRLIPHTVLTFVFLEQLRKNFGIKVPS
UniProt Q12874: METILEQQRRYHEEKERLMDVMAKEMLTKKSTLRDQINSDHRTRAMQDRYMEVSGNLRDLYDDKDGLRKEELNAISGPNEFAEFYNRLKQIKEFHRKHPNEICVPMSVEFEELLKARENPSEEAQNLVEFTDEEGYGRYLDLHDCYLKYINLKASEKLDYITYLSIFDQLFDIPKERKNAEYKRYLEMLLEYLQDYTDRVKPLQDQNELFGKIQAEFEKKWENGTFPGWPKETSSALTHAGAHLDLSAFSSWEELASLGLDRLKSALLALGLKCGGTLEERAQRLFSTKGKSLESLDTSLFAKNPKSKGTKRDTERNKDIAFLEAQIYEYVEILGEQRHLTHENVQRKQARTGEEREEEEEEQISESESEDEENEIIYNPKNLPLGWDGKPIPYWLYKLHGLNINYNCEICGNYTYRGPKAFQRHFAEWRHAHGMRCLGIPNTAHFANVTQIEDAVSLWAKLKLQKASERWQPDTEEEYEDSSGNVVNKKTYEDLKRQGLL
UniProt O15389: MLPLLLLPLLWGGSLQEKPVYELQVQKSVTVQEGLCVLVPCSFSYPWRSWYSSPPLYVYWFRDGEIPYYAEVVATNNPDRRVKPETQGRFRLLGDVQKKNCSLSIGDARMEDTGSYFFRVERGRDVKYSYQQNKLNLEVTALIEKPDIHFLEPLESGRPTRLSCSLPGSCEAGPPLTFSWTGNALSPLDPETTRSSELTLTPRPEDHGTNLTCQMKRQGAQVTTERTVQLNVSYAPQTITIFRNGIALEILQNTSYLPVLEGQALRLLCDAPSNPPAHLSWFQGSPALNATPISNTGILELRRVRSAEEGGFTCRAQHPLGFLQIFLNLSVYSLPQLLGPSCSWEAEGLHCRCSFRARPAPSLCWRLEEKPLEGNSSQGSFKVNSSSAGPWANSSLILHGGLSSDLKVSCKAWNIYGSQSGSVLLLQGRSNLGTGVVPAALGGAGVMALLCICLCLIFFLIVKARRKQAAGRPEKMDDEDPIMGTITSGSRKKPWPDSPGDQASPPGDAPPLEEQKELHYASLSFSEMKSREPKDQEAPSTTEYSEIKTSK
UniProt Q16181: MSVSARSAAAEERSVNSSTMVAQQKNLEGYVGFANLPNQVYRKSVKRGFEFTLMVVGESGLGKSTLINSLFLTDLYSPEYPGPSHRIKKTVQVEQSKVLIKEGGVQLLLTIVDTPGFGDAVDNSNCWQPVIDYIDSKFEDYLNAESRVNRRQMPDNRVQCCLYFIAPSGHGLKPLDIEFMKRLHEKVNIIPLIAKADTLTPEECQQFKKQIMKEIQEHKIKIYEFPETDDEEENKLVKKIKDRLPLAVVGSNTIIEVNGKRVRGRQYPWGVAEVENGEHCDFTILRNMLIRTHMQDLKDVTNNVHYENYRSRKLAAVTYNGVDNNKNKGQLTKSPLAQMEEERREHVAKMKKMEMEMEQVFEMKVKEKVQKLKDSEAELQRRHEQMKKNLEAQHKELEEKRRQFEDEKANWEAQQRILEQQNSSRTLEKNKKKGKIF
UniProt P63208, whole entry, looked up: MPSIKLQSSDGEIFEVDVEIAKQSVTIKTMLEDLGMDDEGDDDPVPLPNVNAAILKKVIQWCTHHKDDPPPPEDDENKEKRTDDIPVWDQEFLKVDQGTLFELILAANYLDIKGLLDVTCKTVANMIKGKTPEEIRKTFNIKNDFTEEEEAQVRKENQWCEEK
UniProt Q8NEM2: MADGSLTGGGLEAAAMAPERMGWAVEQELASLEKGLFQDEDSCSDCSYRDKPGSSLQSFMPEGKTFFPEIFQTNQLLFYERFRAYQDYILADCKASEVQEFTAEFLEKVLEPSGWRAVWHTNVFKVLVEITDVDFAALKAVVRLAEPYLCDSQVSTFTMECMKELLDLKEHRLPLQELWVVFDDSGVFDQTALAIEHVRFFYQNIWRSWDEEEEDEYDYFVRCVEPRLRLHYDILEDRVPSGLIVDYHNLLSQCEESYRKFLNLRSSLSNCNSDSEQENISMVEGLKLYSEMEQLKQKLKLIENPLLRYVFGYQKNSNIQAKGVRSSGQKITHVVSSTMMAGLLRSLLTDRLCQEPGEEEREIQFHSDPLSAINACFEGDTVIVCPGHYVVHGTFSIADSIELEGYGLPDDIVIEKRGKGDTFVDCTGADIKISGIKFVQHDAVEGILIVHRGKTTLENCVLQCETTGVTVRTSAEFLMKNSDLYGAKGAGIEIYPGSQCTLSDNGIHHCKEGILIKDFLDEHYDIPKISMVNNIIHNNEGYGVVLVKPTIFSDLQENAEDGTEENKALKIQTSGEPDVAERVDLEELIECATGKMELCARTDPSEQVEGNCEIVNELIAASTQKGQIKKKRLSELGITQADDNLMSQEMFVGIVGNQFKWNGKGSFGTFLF
UniProt O43772: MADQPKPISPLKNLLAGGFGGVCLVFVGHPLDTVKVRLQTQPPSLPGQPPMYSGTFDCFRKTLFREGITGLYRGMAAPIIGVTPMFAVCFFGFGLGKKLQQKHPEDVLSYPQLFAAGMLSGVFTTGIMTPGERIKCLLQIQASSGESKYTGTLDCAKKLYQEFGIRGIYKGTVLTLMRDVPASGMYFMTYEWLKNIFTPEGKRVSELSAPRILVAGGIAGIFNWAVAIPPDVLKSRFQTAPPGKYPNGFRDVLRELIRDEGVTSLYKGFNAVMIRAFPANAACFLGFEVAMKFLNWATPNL
UniProt P53007, whole entry, looked up: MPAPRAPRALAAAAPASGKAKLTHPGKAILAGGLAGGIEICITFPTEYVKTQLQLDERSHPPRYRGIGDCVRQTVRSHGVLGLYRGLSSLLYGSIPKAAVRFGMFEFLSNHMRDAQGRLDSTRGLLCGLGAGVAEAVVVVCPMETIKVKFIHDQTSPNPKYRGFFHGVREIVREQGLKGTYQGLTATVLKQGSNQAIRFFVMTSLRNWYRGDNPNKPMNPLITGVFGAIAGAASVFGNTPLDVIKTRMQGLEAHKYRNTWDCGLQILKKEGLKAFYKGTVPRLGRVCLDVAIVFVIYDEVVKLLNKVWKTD

Each target was assayed with CC1Cc2ccccc2N1C(=O)C1CCCN(C1)C(=O)CCl (mixture of isomers) [TRIM25 ligand 11 (diastereomer mixture)] (assay: probe-labelled cysteine peptide fold change vs DMSO (competition) (log2 fold change); higher = less target engagement (more negative = stronger competition)). Settings: 10 µM; THP-1; incubation time: 4 h.
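Also: competitive chemoproteomic profiling in live THP-1 cells with an iodoacetamide desthiobiotin (IA-DTB) probe, comparing probe-labelled peptide intensities in compound-treated cells against DMSO-treated controls.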

Row | Target | probe-labelled cysteine peptide fold change
1 | SIRT5_Q9NXA8_293+303_FHFQGPCGTTLPEALACHENETVS (UniProt Q9NXA8) | 0.203
2 | SIK3_Q9Y2K2_121_MLCHPHIIR (UniProt Q9Y2K2) | -0.132
3 | SERPINB8_P50452_128_FYQAELEELSFAEDTEECRK (UniProt P50452) | -0.0048
4 | SETX_Q7Z333_2265_MHPDICLFPSNYVYNR (UniProt Q7Z333) | 0.053
5 | SKA1_Q96BD8_10_ASSDLEQLCSHVNEK (UniProt Q96BD8) | -0.107
6 | SLC25A16_P16260_246_THVNLLCGGVAGAIAQTISYPFDVTR (UniProt P16260) | 0.365
7 | SF3B1_O75533_796_QCCGTDGVEANYIK (UniProt O75533) | 0.0337
8 | SEPT8_Q92599_80_STLMNTLFNTTFETEEASHHEACVR (UniProt Q92599) | 0.221
9 | SLC12A2_P55011_630_IFQALCK (UniProt P55011) | 0.137
10 | SH3GL1_Q99961_277_PREPFDLGEPEQSNGGFPCTTAPK (UniProt Q99961) | 0.0428
11 | SIPA1_Q96FS4_811_QLLHLCLQDGGSPPGPGDLAEER (UniProt Q96FS4) | 0.0202
12 | SKA1_Q96BD8_29_NCGQEPTLK (UniProt Q96BD8) | -0.0792
13 | SKIV2L_Q15477_719_GLDPTGTVILLCK (UniProt Q15477) | 0.0408
14 | SKAP2_O75563_185+186_DCCFEISAPDKR (UniProt O75563) | 0.0134
15 | SLC25A19_Q9HC21_124_EFSVHFVCGGLAACMATLTVHPVDVLR (UniProt Q9HC21) | 0.0463
16 | SH3GLB1_Q9Y371_304_ECSGSR (UniProt Q9Y371) | -0.137
17 | SERPINB8_P50452_98_TCDFLPDFK (UniProt P50452) | 0.00497
18 | SIRT3_Q9NTG7_256+259_LVEAHGTFASATCTVCQRPFPGEDIR (UniProt Q9NTG7) | -0.2

Row | Target | probe-labelled cysteine peptide fold change
19 | SHMT2_P34897_241_MREVCDEVK (UniProt P34897) | -0.134
20 | SLC25A10_Q9UBX3_240_LMNSKGEYQGVFHCAVETAK (UniProt Q9UBX3) | -0.467
21 | SF3A3_Q12874_103_HPNEICVPMSVEFEELLK (UniProt Q12874) | 0.0836
22 | SIGLEC5_O15389_314_SAEEGGFTCR (UniProt O15389) | 0.0112
23 | SIN3B_O75182_1138_TLCETVHVHGLPVTR (UniProt O75182) | 0.0309
24 | SLC25A24_Q6NUK1_330_TGQYSGIYDCAK (UniProt Q6NUK1) | -0.0738
25 | SEPT7_Q16181_160_VQCCLYFIAPSGHGLKPLDIEFMK (UniProt Q16181) | 0.0163
26 | SFSWAP_Q12872_307_CNRLEELMK (UniProt Q12872) | -0.129
27 | SKP1_P63208_62_VIQWCTHHK (UniProt P63208) | 0.00537
28 | SHCBP1_Q8NEM2_500+510_GAGIEIYPGSQCTLSDNGIHHCK (UniProt Q8NEM2) | 0.135
29 | SFPQ_P23246_431_CSEGVFLLTTTPRPVIVEPLEQLDDEDGLPEK (UniProt P23246) | 0.153
30 | SLC25A20_O43772_283_AFPANAACFLGFEVAMK (UniProt O43772) | -0.155
31 | SEPT7_Q16181_160_VQCCLYFIAPSGHGLK (UniProt Q16181) | 0.2
32 | SF3A3_Q12874_408+411_LHGLNINYNCEICGNYTYR (UniProt Q12874) | 0.104
33 | SERPINB8_P50452_348_FCADHPFLFFIR (UniProt P50452) | -0.0885
34 | SETD2_Q9BYW2_1086_NSTLPMEETSPCSSR (UniProt Q9BYW2) | 0.377
35 | SLC25A5_P05141_257_GTDIMYTGTLDCWRK (UniProt P05141) | -0.138
36 | SLC25A1_P53007_127_GLLCGLGAGVAEAVVVVCPMETIK (UniProt P53007) | -0.0544

Same assay, conditions: 50 µM; THP-1; incubation time: 4 h

Row | Target | probe-labelled cysteine peptide fold change
37 | SIRT5_Q9NXA8_293+303_FHFQGPCGTTLPEALACHENETVS (UniProt Q9NXA8) | -0.0498
38 | SIK3_Q9Y2K2_121_MLCHPHIIR (UniProt Q9Y2K2) | 0.0404
39 | SERPINB8_P50452_128_FYQAELEELSFAEDTEECRK (UniProt P50452) | -0.0437
40 | SETX_Q7Z333_2265_MHPDICLFPSNYVYNR (UniProt Q7Z333) | -0.197
41 | SKA1_Q96BD8_10_ASSDLEQLCSHVNEK (UniProt Q96BD8) | -0.0752
42 | SLC25A16_P16260_246_THVNLLCGGVAGAIAQTISYPFDVTR (UniProt P16260) | 0.384
43 | SF3B1_O75533_796_QCCGTDGVEANYIK (UniProt O75533) | 0.044
44 | SEPT8_Q92599_80_STLMNTLFNTTFETEEASHHEACVR (UniProt Q92599) | -0.0644
45 | SLC12A2_P55011_630_IFQALCK (UniProt P55011) | 0.0624
46 | SH3GL1_Q99961_277_PREPFDLGEPEQSNGGFPCTTAPK (UniProt Q99961) | -0.334
47 | SIPA1_Q96FS4_811_QLLHLCLQDGGSPPGPGDLAEER (UniProt Q96FS4) | 0.0931
48 | SKA1_Q96BD8_29_NCGQEPTLK (UniProt Q96BD8) | 0.0171
49 | SKIV2L_Q15477_719_GLDPTGTVILLCK (UniProt Q15477) | 0.0411
50 | SKAP2_O75563_185+186_DCCFEISAPDKR (UniProt O75563) | 0.18
51 | SLC25A19_Q9HC21_124_EFSVHFVCGGLAACMATLTVHPVDVLR (UniProt Q9HC21) | 0.118
52 | SH3GLB1_Q9Y371_304_ECSGSR (UniProt Q9Y371) | 0.575
53 | SERPINB8_P50452_98_TCDFLPDFK (UniProt P50452) | -0.162
54 | SIRT3_Q9NTG7_256+259_LVEAHGTFASATCTVCQRPFPGEDIR (UniProt Q9NTG7) | -0.279

Row | Target | probe-labelled cysteine peptide fold change
55 | SHMT2_P34897_241_MREVCDEVK (UniProt P34897) | -0.048
56 | SLC25A10_Q9UBX3_240_LMNSKGEYQGVFHCAVETAK (UniProt Q9UBX3) | -0.199
57 | SF3A3_Q12874_103_HPNEICVPMSVEFEELLK (UniProt Q12874) | 0.209
58 | SIGLEC5_O15389_314_SAEEGGFTCR (UniProt O15389) | 0.0993
59 | SIN3B_O75182_1138_TLCETVHVHGLPVTR (UniProt O75182) | -0.019
60 | SLC25A24_Q6NUK1_330_TGQYSGIYDCAK (UniProt Q6NUK1) | -0.0691
61 | SEPT7_Q16181_160_VQCCLYFIAPSGHGLKPLDIEFMK (UniProt Q16181) | -0.26
62 | SFSWAP_Q12872_307_CNRLEELMK (UniProt Q12872) | -0.292
63 | SKP1_P63208_62_VIQWCTHHK (UniProt P63208) | 0.0343
64 | SHCBP1_Q8NEM2_500+510_GAGIEIYPGSQCTLSDNGIHHCK (UniProt Q8NEM2) | 0.0189
65 | SFPQ_P23246_431_CSEGVFLLTTTPRPVIVEPLEQLDDEDGLPEK (UniProt P23246) | 0.0356
66 | SLC25A20_O43772_283_AFPANAACFLGFEVAMK (UniProt O43772) | -0.204
67 | SEPT7_Q16181_160_VQCCLYFIAPSGHGLK (UniProt Q16181) | -0.00708
68 | SF3A3_Q12874_408+411_LHGLNINYNCEICGNYTYR (UniProt Q12874) | 0.199
69 | SERPINB8_P50452_348_FCADHPFLFFIR (UniProt P50452) | 0.0312
70 | SETD2_Q9BYW2_1086_NSTLPMEETSPCSSR (UniProt Q9BYW2) | -0.415
71 | SLC25A5_P05141_257_GTDIMYTGTLDCWRK (UniProt P05141) | -0.241
72 | SLC25A1_P53007_127_GLLCGLGAGVAEAVVVVCPMETIK (UniProt P53007) | -0.143
